Earlier results, collected in patent publication US20090214648A1 (priority 2008, published 2009).

Solubility in organic solvents (alcohol, chloroform, acetone, methanol, ether and dichloromethane): soluble
Solubility in water (water): practically insoluble
Structure (SMILES): CC(C)Cc1ccc(C(C)C(=O)O)cc1 (centres unmarked) [Ibuprofen, 2-[4-(2-methylpropyl)phenyl]propanoic acid]
